Out of some 350,000 compounds screened, about 220 (0.063%) were called active. This list was built around the results that the source calls inconclusive (neither active nor inactive); the mix of calls is not that of the screen. Calls follow the shape of the dose curve; as a rule, active = well fitted activation curve with a large enough effect; inconclusive = small, poorly fitted or top-dose-only effect; inactive = no such curve, though single readings can be large or run the other way. A potency beside an inconclusive call is a rough fit, not a confirmed value.
assay: qHTS for Activators of Integrin-Mediated Alleviation for Muscular Dystrophy; conditions: alpha7betagal myoblasts, beta-gal FDG fluorescence, 48 h; activation: at 38.3 µM (top of the series); also: nearly all actives have a fitted effect of over 60% in size;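 as to activation: 100% = response of the positive control SU9516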
In short: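 Alpha7betagal+/- myoblasts (passage 13) were plated 16-24 hr, then exposed to compounds (1:260 dilution of DMSO stock) for 48 hours at 37C. After MPER lysis, β-galactosidase reporter activity was read as FDG fluorescence (ex 480/em 540) after 30 minutes.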
Potency is read from the fitted curve at half-maximal effect.

Structure (SMILES)	Potency	activation
CC1=CC(=C2C(=O)NC(=S)NC2=O)C=C(C(F)(F)F)N1C	inconclusive: 10 µM [activator, partial curve, poor fit]	
C[C@H]1C[C@@H](C)C(=O)[C@@H]([C@H](O)CC2CC(=O)NC(=O)C2)C1		inactive: -39.3%
Cc1cc(C)cc(NC(=O)CCNC(=O)N2C[C@H]3C[C@@H](C2)c2cccc(=O)n2C3)c1		inactive: -11.2%
COc1ccc(F)cc1CN1CCN(C(=O)CCC(=O)Nc2nnc(CC(C)C)s2)CC1	inconclusive: 28.2 µM [activator, single point]	
CCOP(=O)(OCC)C(C)(C)NC(=O)C(Cl)(Cl)Cl	inconclusive: 10 µM [activator, partial curve, poor fit]	
O=c1c2ccccc2nc(-c2ccccc2)n1-c1ccccn1	inconclusive: 3.16 µM [activator, partial curve, poor fit]	
COc1ccc(C(=O)C2CCCN(Cc3ccc(C)s3)C2)c(OC)c1 (stereo not drawn)		inactive: -33.6%
COc1ccc(N2C(=O)/C(=C/c3ccc(C)o3)C(=O)NC2=S)c(OC)c1		inactive: 1.11%
c1cc2c(cc1CN1CCNCC1)OCO2	inconclusive: 28.2 µM [activator, single point]	
Cc1cc(=O)oc2cc(OCC(=O)N3CCN(Cc4ccc5c(c4)OCO5)CC3)ccc12	inconclusive: 1.58 µM [activator, partial curve, poor fit]	
CCN(CC)c1ccc(/C=N/c2sc3c(c2C#N)C2CCN3CC2)c(O)c1		inactive: -45.8%
CC(=O)OC(C)(C)/C=C/C(=O)C(C)(O)C1C(O)CC2(C)C3CC=C4C(CC(O)C(=O)C4(C)C)C3(C)C(=O)CC12C (stereo not drawn)		inconclusive: -21.7% [activator]
Cc1ccc(OCC(=O)N2CCN(Cc3ccc4c(c3)OCO4)CC2)cc1C	inconclusive: 12.6 µM [activator, partial curve, poor fit]	
Cc1cc(C)cc(N2C(=O)NC(=O)/C(=C\c3cccn3-c3ccc(Cl)cc3)C2=O)c1		inactive: 25.5%
CC(C)(C)N1Cc2ccccc2C1=N	inconclusive: 31.6 µM [activator, single point]	
Cc1ccc2c(c1)C1CN(C)CCC1N2C(=O)COc1ccc(N(C)C(=O)C(C)(C)C)cc1 (stereo not drawn)	inconclusive: 3.55 µM [activator, single point]	
OC(CN1CCCCC1)c1c[nH]c2ccccc12 (stereo not drawn)	inconclusive: 3.16 µM [activator, single point]	
Cc1ccc2c(c1)C1CN(C)CCC1N2C(=O)c1cccs1 (stereo not drawn)		inactive: -7.47%
CC(C)CNP(=S)(c1ccccc1)C(C)(C)C (stereo not drawn)	inconclusive: 3.55 µM [activator, single point]	
COc1cc(CC2(CCc3ccncc3)C(=O)NC(=O)NC2=O)cc(OC)c1OC	inconclusive: 2.82 µM [activator, single point]	
OC1/C(=C/c2ccc(Cl)cc2Cl)N2CCC1CC2 (stereo not drawn)	inconclusive: 28.2 µM [activator, single point]	
O=C(NCC1CCCO1)C1CCN(C2CCN(C(=O)Cc3ccsc3)CC2)CC1 (stereo not drawn)	inconclusive: 5.62 µM [activator, partial curve, poor fit]	
CCCCCn1c(=O)c(C(=O)Nc2cccc(C)c2)c(O)c2ccccc21	inconclusive: 5.01 µM [activator, single point]	

Structure (SMILES)	Potency	activation
CC(C)CCCn1c(O)c(/C=C2/C=CC=N2)c(=O)[nH]c1=O	inconclusive: 12.6 µM [activator, single point]	
O=Cc1cn(Cc2ccc(F)cc2Cl)c2ccccc12	active: 15.8 µM	
COC(=O)CCCCC1SCC(NC(=O)c2ccccc2)C1Cl (stereo not drawn)		inactive: -32.2%
COc1ccc(OCC(=O)Nc2ccc(Cl)cc2C(=O)c2ccccc2)cc1		inactive: -3.09%
O=C(C[n+]1ccccc1)c1ccc(Cl)cc1	inconclusive: 12.6 µM [activator, partial curve, poor fit]	
CCOc1cc2c(cc1OCC)-n1cccc1C(c1ccc(F)c(OC)c1)NC2 (stereo not drawn)	inconclusive: 8.91 µM [activator, partial curve, poor fit]	
O=c1[nH]c(=O)n(C2CCCCC2)c(O)c1/C=N/N1CCCCC1c1cccnc1 (stereo not drawn)	inconclusive: 0.501 µM [activator, full curve, poor fit]	
CCOC(=O)c1c(NC(=O)c2c(N)n(CCCOC)c3nc4ccccc4nc23)sc2c1CCCC2		inactive: -9.93%
CCn1nc(/C=C/c2ccccc2)nc2c(=O)n(C)c(=O)nc1-2		inactive: -34.1%
CC12CCC3C(CC=C4CC5(CCC43C)OCCO5)C1CCC2=O (stereo not drawn)	inconclusive: 5.01 µM [activator, single point]	
CCOC(=O)CSc1ncnc2c1cnn2-c1ccccc1	inconclusive: 8.91 µM [activator, partial curve, poor fit]	
CC1CN(c2ccc([N+](=O)[O-])c3cccnc23)CC(C)N1 (stereo not drawn)		inactive: 0%
CC(=NCc1cccnc1)c1c(O)n(Cc2ccccc2)c(=O)[nH]c1=O	inconclusive: 1.12 µM [activator, partial curve, poor fit]	
O=P1(Oc2ccccc2)OCCCS1 (stereo not drawn)	inconclusive: 15.8 µM [activator, single point]	
COc1ccc(Cn2c(O)c(/C=N/NC(=O)c3ccccc3)c(=O)[nH]c2=O)cc1		inactive: 8.05%
Cn1c(O)c(/C=C2\C=Nc3ccccc32)c(=O)n(C)c1=O	inconclusive: 28.2 µM [activator, single point]	
CCOC(=O)c1c(-n2c(C)cc(C=C3C(=O)NC(=S)NC3=O)c2C)sc2c1CCCC2		inactive: -16.7%
Cc1cc(N(CCCl)CCCl)ccc1C=Cc1ccncn1		inactive: -12%
O=C(Nc1cccc(C(F)(F)F)c1)Oc1ccccc1N1CCOCC1	inconclusive: 3.55 µM [activator, single point]	
CCOc1ccc(C2C(C#N)=C(N)Oc3c2c(=O)oc2ccccc32)cc1 (stereo not drawn)	inconclusive: 3.55 µM [activator, single point]	
O=c1[nH]c(=S)[nH]c(O)c1C(c1ccccn1)c1c(O)[nH]c(=S)[nH]c1=O	inconclusive: 2.82 µM [activator, single point]	
CCCCCP(=O)(O)c1ccccc1	inconclusive: 14.1 µM [activator, partial curve, poor fit]	
CC(=NCc1ccc2c(c1)OCO2)c1c(O)n(Cc2ccccc2)c(=O)[nH]c1=O		inactive: -17.9%

Structure (SMILES)	Potency	activation
NC1C2CN3CCN(C2)CC1(c1ccccc1)C3 (stereo not drawn)	inconclusive: 1.78 µM [activator, partial curve, poor fit]	
O=[N+]([O-])c1ccc(CNCCc2ccccc2)cc1	inconclusive: 0.112 µM [activator, full curve, poor fit]	
CC(C(=O)c1c[nH]c2ccccc12)N1CCN(C(=O)c2ccco2)CC1 (stereo not drawn)	inconclusive: 11.2 µM [activator, partial curve, poor fit]	
O=C(NC1CONC1=O)OCC(Cl)(Cl)Cl (stereo not drawn)	inconclusive: 0.794 µM [activator, full curve, poor fit]	
Cc1cnc(-n2c(=S)[nH]c3ccccc3c2=O)s1	inconclusive: 1.78 µM [activator, partial curve, poor fit]	
CC(C)c1ccc(N=Nc2c(O)[nH]c(=O)[nH]c2=O)cc1	inconclusive: 2.51 µM [activator, partial curve, poor fit]	
CCN(CC)C(=O)Oc1ccc(NC(=O)N2CCOCC2)cc1	inconclusive: 14.1 µM [activator, single point]	
CN(C)c1ccc(/C=C2/C(=O)NC(=O)N(CCc3ccc(F)cc3)C2=O)cc1	inconclusive: 6.31 µM [activator, partial curve, poor fit]	
COc1ccc(SCC2CN(C)CCC2c2ccc(F)cc2)cc1 (stereo not drawn)	inconclusive: 4.47 µM [activator, single point]	
CSc1ncc(/C=C2/C(=O)NC(=O)N(c3ccc(C)cc3)C2=O)cn1	inconclusive: 2.24 µM [activator, partial curve, poor fit]	
CC(=O)OCC12CC(OC(=O)CC(C)C)C(C)=CC1OC1C(O)C(OC(C)=O)C2(C)C12CO2 (stereo not drawn)		inconclusive: -55.8% [activator]
CCCC(C)C1(CC)C(=O)NC(=O)N=C1N (stereo not drawn)	inconclusive: 5.01 µM [activator, single point]	
COc1cc2c(cc1OC)C(C1c3cc4c(cc3CCN1C)OCO4)OC2=O (stereo not drawn)		inactive: 0.548%
COC(=O)C1=C(c2cccc(OCc3ccccc3)c2)C[C@@H]2CC[C@H]1N2C(=O)NCc1cccc(C(F)(F)F)c1		inactive: -22.1%
CC(C)(C)c1ccc(O)c(N=Cc2c(O)ccc3ccccc23)c1		inconclusive: -36.7% [activator]
Cc1ccc(-c2nn(CCC#N)cc2C(=O)O)cc1C	inconclusive: 3.16 µM [activator, single point]	
Cc1ccc(S(=O)(=O)NN)c(C)c1N1CCCC1=O	inconclusive: 2.82 µM [activator, single point]	
CCOc1ccc(CN2CCCC(C(=O)c3ccccc3OC)C2)cc1 (stereo not drawn)		inactive: 1.93%
CC(=O)N1CC(=O)Nc2ccc(Br)cc2C1c1ccc(F)cc1 (stereo not drawn)	inconclusive: 2.82 µM [activator, partial curve, poor fit]	
CCCC12CN3CCN(CC(C3)/C1=N\NC(=O)c1ccncc1)C2	inconclusive: 5.01 µM [activator, partial curve, poor fit]	
OCCNc1c2c(nc3ccccc13)CCCC2		inactive: 1.36%
CCOc1cc2c(cc1OCC)-n1cccc1C(c1cc(OC)ccc1F)NC2 (stereo not drawn)	inconclusive: 5.01 µM [activator, single point]	

Taken from the entries so far for reference:
Structure (SMILES)	Potency	activation
COc1ccc(N2C(=O)/C(=C/c3ccc(C)o3)C(=O)NC2=S)c(OC)c1		inactive: 1.11%
c1cc2c(cc1CN1CCNCC1)OCO2	inconclusive: 28.2 µM [activator, single point]	
Cc1cc(=O)oc2cc(OCC(=O)N3CCN(Cc4ccc5c(c4)OCO5)CC3)ccc12	inconclusive: 1.58 µM [activator, partial curve, poor fit]	
